Measured values taken from PMC4637903.
Results are given in words; binding and its absence hold for the method and conditions named. Binding seen in cells or lysates may run through a third protein. Some results given as binding are weak or reduced against the parent protein; the word gives no strength.

Sequences of proteins named here, by UniProt entry; tags and fusion partners are left off. Residues count along the entry.
UniProt P16144, residues 28-1822: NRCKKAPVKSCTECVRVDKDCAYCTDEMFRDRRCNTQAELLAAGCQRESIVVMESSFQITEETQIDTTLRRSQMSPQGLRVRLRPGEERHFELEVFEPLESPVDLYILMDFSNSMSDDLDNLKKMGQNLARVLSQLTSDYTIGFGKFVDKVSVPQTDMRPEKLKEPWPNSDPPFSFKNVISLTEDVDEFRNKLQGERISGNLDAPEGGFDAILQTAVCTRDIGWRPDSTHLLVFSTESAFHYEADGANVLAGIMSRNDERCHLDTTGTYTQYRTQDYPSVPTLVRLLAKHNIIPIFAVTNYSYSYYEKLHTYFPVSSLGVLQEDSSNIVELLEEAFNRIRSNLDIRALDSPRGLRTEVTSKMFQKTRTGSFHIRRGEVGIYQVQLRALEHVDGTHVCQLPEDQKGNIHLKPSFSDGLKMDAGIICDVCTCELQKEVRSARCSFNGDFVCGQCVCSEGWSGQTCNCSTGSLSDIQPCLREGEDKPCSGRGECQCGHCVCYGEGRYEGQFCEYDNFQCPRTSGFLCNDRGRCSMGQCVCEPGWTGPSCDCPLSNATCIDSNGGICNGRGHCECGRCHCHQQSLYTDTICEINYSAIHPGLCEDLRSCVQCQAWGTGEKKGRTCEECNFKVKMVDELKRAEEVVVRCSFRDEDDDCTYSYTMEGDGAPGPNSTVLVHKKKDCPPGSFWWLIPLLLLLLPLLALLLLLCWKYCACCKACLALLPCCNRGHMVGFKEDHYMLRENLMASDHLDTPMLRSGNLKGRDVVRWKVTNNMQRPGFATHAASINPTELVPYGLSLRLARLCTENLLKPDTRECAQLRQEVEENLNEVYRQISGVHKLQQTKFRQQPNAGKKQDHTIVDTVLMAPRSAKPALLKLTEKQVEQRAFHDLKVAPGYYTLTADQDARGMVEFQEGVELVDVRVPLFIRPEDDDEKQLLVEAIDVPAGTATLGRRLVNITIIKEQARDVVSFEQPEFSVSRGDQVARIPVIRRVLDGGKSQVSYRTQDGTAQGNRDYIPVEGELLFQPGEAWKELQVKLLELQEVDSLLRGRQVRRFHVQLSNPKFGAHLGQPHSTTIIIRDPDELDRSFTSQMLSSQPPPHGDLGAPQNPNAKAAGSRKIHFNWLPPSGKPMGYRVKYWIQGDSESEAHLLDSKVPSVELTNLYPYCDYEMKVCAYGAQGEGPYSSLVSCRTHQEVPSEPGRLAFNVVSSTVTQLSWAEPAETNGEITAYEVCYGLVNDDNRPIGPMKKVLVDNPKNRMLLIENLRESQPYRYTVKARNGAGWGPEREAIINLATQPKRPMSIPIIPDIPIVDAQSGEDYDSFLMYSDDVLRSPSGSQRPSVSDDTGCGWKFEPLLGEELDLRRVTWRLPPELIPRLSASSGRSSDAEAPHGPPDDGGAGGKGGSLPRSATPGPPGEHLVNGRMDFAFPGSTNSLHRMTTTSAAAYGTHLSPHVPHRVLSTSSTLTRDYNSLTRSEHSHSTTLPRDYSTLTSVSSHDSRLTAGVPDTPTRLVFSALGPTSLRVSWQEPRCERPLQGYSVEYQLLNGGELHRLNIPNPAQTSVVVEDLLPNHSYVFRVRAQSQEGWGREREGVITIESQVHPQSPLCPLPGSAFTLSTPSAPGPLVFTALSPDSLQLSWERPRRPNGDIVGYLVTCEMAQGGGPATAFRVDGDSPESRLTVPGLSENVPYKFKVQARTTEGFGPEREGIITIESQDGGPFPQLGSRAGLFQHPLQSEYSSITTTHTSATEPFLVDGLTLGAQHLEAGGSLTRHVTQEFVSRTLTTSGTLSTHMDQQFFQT
UniProt Q05397: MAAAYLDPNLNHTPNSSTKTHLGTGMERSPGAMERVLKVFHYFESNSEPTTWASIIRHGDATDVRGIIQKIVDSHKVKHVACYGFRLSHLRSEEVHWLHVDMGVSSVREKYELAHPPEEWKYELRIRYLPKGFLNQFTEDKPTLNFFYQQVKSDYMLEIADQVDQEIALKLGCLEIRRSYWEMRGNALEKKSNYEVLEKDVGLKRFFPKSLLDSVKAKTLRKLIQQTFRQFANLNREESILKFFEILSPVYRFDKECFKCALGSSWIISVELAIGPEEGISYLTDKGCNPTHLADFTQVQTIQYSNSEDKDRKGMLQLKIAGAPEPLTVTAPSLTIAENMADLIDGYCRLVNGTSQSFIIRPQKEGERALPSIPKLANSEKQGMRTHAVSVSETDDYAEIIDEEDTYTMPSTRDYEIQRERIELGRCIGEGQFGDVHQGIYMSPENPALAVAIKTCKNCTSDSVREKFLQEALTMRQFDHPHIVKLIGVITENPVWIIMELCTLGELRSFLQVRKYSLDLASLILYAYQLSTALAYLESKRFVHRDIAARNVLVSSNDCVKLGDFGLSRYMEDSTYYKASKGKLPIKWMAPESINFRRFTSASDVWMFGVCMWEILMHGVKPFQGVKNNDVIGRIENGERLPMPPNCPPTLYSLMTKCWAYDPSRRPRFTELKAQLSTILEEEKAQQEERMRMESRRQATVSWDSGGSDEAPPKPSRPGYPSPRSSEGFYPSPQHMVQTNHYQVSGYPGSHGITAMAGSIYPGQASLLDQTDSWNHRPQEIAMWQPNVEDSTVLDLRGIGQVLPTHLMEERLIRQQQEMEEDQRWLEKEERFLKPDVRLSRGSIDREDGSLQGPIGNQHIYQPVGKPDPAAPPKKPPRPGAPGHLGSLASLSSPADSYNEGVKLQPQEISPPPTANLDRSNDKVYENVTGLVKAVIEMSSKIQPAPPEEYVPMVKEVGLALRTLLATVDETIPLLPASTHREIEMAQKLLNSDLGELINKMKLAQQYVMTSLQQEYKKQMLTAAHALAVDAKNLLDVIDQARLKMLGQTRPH

What was measured:
[1] = target: β4 integrin (human (endogenous in MDA-MB-231 and other human cell lines and tissue)) (UniProt P16144); assay: co-IP; endogenous proteins in HCT-116 cells; unpublished data
[2] = target: β4 integrin (human (endogenous in MDA-MB-231 and other human cell lines and tissue)) (UniProt P16144); assay: co-IP; cells overexpressing increasing amounts of FAK/25aa; β4 integrin immunoprecipitated, FAK and FAK/25aa detected
[3] = target: β4 integrin (human (endogenous in MDA-MB-231 and other human cell lines and tissue)) (UniProt P16144); assay: co-IP; endogenous proteins in MDA-MB-231 lysate, 1 mg/ml total protein, antibody 4 h at 4 °C, protein A- or G-Sepharose; also cells transfected with HA-Src wild type, Src^Y527F or Src^K295M, treated with DMSO, PP2 or PP3 (10 μM), or serum-starved and stimulated with EGF (10 ng/ml)

binding [1]: binds
binding [2]: binds
binding [3]: binds
Substance: focal adhesion kinase (FAK) (from UniProt Q05397 1-1052) (enzyme)
